Results taken from patent publication US20120035156A1, “COMBINATION OF GLYT1 COMPOUND WITH ANTIPSYCHOTICS” (priority 2010, published 2012).
At least one read-out could not be matched to a standard name with certainty.

System: L-687,414-induced hyperlocomotion
Experiment: Reversal of L-687,414-induced hyperlocomotion in mice
Assay type: in vivo
Settings: male NMRI mice, p.o., L-687,414 50 mg/kg s.c., horizontal activity recorded 1 hour
Method: RG1678, [4-(3-Fluoro-5-trifluoromethyl-pyridin-2-yl)-piperazin-1-yl]-[5-methanesulfonyl-2-((S)-2,2,2 trifluoro-1-methyl-ethoxy)-phenyl]-methanone (WO05/014563) and L-687,414, ((3R,4R)-3-amino-1-hydroxy-4-methylpyrrolidin-2-one (Tetrahedron Letters, Vol. 49, issue 42, 2008, 6079-6080) and olanzapine were synthesized according to known methods by the Medicinal Chemistry Department of F. Hoffmann-La Roche, and risperidone was purchased from Sigma. All drugs were dissolved in H2O/0.3% Tween 80 and administered orally in a volume of 10 ml/kg body weight. […]
A computerized Digiscan 16 Animal Activity Monitoring System (Omnitech Electronics, Columbus, Ohio) was used to quantify locomotor activity. […] Two animals per box were monitored simultaneously. […] Horizontal activity was then recorded for a 60-min time period. The horizontal activity value for each group of animals at a given dose of RG1678 alone or in combination with an antipsychotic (y1) was expressed as % of L-687,414-induced hyperlocomotion and calculated according to the equation (((y1−vehicle horizontal activity)/(L-687,414 horizontal activity−vehicle horizontal activity))×100). […]

Q: How did the “ED50 of compound alone, L-687,414-induced hyperlocomotion” value turn out when `C[C@H](Oc1ccc(S(C)(=O)=O)cc1C(=O)N1CCN(c2ncc(C(F)(F)F)cc2F)CC1)C(F)(F)F` [RG1678] was run?
A: 0.83 mg/kg
